The list shows a part of the results. Construct or isoform of the protein are uncertain.
Each sequence was assayed against T1, PUM1 PUF domain R5-PHQ R6-SWD C1007P + R1008H + N1043S + Y1044W + Q1047D (UniProt Q14671). Settings: yeast three-hybrid, YBZ-1, SC-Leu-His + 0.5 mM 3-AT, 4 days.
T1 sequence: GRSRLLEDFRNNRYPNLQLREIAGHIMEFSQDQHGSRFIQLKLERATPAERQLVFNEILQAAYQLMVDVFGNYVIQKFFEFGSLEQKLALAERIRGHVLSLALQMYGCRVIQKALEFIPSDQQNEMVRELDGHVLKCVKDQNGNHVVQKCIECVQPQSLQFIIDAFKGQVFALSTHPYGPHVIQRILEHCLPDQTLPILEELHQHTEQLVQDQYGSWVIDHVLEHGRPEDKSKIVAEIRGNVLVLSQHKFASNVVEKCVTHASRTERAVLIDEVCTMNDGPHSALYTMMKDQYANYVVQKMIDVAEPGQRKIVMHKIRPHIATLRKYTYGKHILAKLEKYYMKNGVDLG

Row | Sequence | binding signal (log2 enrichment (interaction score))
1 | GGCUAGAACUAGUGGAUCCCCCGGCGCCCGGCGGCUCGAGCCCGGGUAAGAGUAAGUAGUCUGCAUGCCGCCGGGCGCCAUGCCUGCAGGUCGACUCUAGAAAACAUG | < -7.29
2 | GGCUAGAACUAGUGGAUCCCCCGGCGCCCGGCGGCUCGAGCCCGGGUAAGUAGACGGAGUCUGCAUGCCGCCGGGCGCCAUGCCUGCAGGUCGACUCUAGAAAACAUG | -8.9
3 | GGCUAGAACUAGUGGAUCCCCCGGCGCCCGGCGGCUCGAGCCCGGGUAAGCCAAACUAGUCUGCAUGCCGCCGGGCGCCAUGCCUGCAGGUCGACUCUAGAAAACAUG | < -7.96
4 | GGCUAGAACUAGUGGAUCCCCCGGCGCCCGGCGGCUCGAGCCCGGGUAAGUCUAAGUAGUCUGCAUGCCGCCGGGCGCCAUGCCUGCAGGUCGACUCUAGAAAACAUG | -9.25
